Measurements as given in the supplement of paper PMC8256030.
Several values for one entry are separate records, joined by “and”; a condition that tells them apart may be missing. Identical values can stand only once. Counter-ions that a name gives are not always drawn. This is one part of the list. Single values are uncertain here, since repeats match poorly.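 HEK293T cells were given each compound shortly before transfection with a reporter in which red mCherry is followed by the SARS-CoV-2 frameshift element and then GFP in the −1 frame, so GFP appears only after frameshifting.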

Columns and labels:
[1] = test system: HEK293T; assay: percent viability (nuclei count) relative to control; higher = more viable cells; details: 10 µM; 24 h
[2] = test system: SARS-CoV-2 -1 PRF reporter mCherry-FSE-GFP(-1); assay: mCherry (red) intensity as percent of control; higher = higher upstream reporter expression; details: 10 µM; 24 h; HEK293T
[3] = test system: SARS-CoV-2 -1 PRF reporter mCherry-FSE-GFP(-1); assay: percent effect, decrease of GFP/mCherry ratio (-1 PRF reporter) relative to controls; higher = stronger frameshift inhibition; details: 10 µM; 24 h; HEK293T

Row | Structure (SMILES) | percent viability [1] | mCherry [2] | percent effect [3]
1 | CCCCC(C#N)(Cn1cncn1)c1ccc(Cl)cc1 (stereo unspecified) [Myclobutanil] | 179% | 54.9% | -4.76%
2 | C[N+]1(C)CCCC(OC(=O)C(O)(c2ccccc2)c2ccccc2)C1 (stereo unspecified) [mepenzolate bromide] | 128% | 123% | -7.46%
3 | Oc1ccc2c3c1O[C@H]1[C@@H](O)CC[C@@]4(O)[C@@H](C2)N(CC2CCC2)CC[C@]314 | 177% | 110% | -3.28%
4 | C[C@@H]1CN([C@H]2CC[C@](C#N)(c3ccc(F)cc3)CC2)CC[C@]1(C(=O)O)c1ccccc1 [levocabastine] | 120% | 95.3% | -2.07%
5 | COc1ccc2c3c1O[C@H]1[C@@H](O)C=C[C@H]4[C@@H](C2)NCC[C@@]341 [norcodeine] | 202% | 104% | -0.478%
6 | N[C@@H](Cc1ccc(N(CCCl)CCCl)cc1)C(=O)O | 302% | 141% | 1.21%
7 | Cn1cc(C(=O)c2cccc3ccccc23)cc1C(=O)O [napirimus] | 152% | 94.3% | -3.01%
8 | COc1ccc2c3c1O[C@H]1[C@@H](OC(C)=O)C=C[C@H]4[C@@H](C2)N(C)CC[C@@]341 | 327% | 97.7% | -1.8%
9 | C[C@]12CCC(=O)C(O)=C1CC[C@@H]1[C@@H]2CC[C@]2(C)C(=O)CC[C@@H]12 | 307% | 98.9% | -3.77%
10 | CCN(CC)CCOC(=O)C(O)(c1ccccc1)c1ccccc1 [benactyzine] | 216% | 94.6% | -2.43%
11 | CCn1nc(C)c2c1C(c1ccccc1)=NCC(=O)N2 [ripazepam] | 114% | 91.5% | -6.37%
12 | C[C@@H]1O[C@@H](O[C@H]2C[C@@H](O)[C@]3(CO)[C@H]4[C@H](O)C[C@]5(C)[C@@H](C6=CC(=O)OC6)CC[C@]5(O)[C@@H]4CC[C@]3(O)C2)[C@H](O)[C@H](O)[C@H]1O | 2.97% | 14.9% | -14%
13 | COc1ccc(C(=O)c2c(C)n(CCN3CCOCC3)c3ccccc23)cc1 [pravadoline] | 137% | 98.8% | -1.36%
14 | C=CCN1CC[C@]23CCCC[C@H]2[C@H]1Cc1ccc(O)cc13 [Levallorphan] | 305% | 92.8% | -6.62%
15 | COc1cc([C@@H]2c3cc4c(cc3[C@H](O)[C@H]3COC(=O)[C@H]23)OCO4)cc(OC)c1OC [Podofilox] | 19.8% | 21.9% | -6.46%
16 | N.N.[Cl][Pt][Cl] [Cisplatin] | 312% | 106% | -7.35%

Row | Structure (SMILES) | percent viability [1] | mCherry [2] | percent effect [3]
17 | O=C(NC(=O)c1c(F)cccc1F)Nc1ccc(Cl)c(Oc2ncc(C(F)(F)F)cc2Cl)c1 [fluazuron] | 130% | 127% | -3.16%
18 | CCC1(C2=NCCN2)Cc2ccccc2O1 (stereo unspecified) [efaroxan] | 148% | 99.9% | -1.58%
19 | C#CC1(OC(N)=O)CCCCC1 [ethinamate] | 161% | 101% | -1.3%
20 | CC(N)Cc1ccccc1 (stereo unspecified) [amfetamine] | 176% | 113% | 0.397%
21 | COC(=O)[C@H]1[C@@H](OC(=O)c2ccccc2)C[C@@H]2CC[C@H]1N2C [Cocaine] | 318% | 80.7% | -5.48%
22 | CCOP(=O)(OCC)O/C(=C\Cl)c1ccc(Cl)cc1Cl [clofenvinfos] | 178% | 76.1% | 1.81%
23 | CCC1(CC)C(=O)NC(=O)N(C)C1=O [metharbital] | 351% | 98.6% | -5.84%
24 | CNC(=O)NC(O)C(Cl)(Cl)Cl (stereo unspecified) [mecloralurea] | 198% | 142% | -0.517%
25 | CCC1(CC)C(=O)NC(=O)NC1=O [barbital] | 130% and 321% | 106% and 85.9% | -1.54% and -5.26%
26 | N.N.[Cl][Pt][Cl] | 155% | 98.6% | -18.7%
27 | C[N+]1(C)[C@@H]2CC[C@H]1C[C@@H](OC(=O)C(CO)c1ccccc1)C2 (stereo partly specified) [atropine methonitrate] | 199% | 96.6% | -5.98%
28 | c1ccc2c(c1)OCC(C1=NCCN1)O2 (stereo unspecified) | 102% | 79.4% | -2.99%
29 | CN(C)[C@@H]1C(=O)C(C(N)=O)=C(O)[C@@]2(O)C(=O)C3=C(O)c4c(O)ccc(Cl)c4[C@@](C)(O)[C@H]3C[C@@H]12 [chlortetracycline] | 140% | 94.6% | -4.08%
30 | C[C@@H]([C@H](O)c1ccccc1)N(C)C | 294% | 122% | -6.35%
31 | C#CCN(C)[C@H](C)Cc1ccccc1 [(R)-(-)-Deprenyl·HCl] | 251% | 79.7% | -2.82%
32 | C[C@]1(O)CC[C@H]2[C@@H]3CC[C@@]45O[C@]4(C)C(O)=C(C#N)C[C@]5(C)[C@H]3CC[C@@]21C [epostane] | 160% | 73.7% | -0.25%
